Survivor count and T/C data for 7 compounds are collected here from PubChem BioAssay AID192 (DTP/NCI, 2004).

The list shows only some results of the screen, not a fair sample: it gathers tests that were run many times, whatever their T/C, doses with no T/C, and many T/C values between a quarter and a half above the control. Other doses and runs of a compound stand elsewhere. T/C is the treated group as % of the vehicle group. Some doses have a count of surviving animals in place of a T/C: the source files T/C as zero there, which appears to mark a toxic dose or a test without result, not a measured value. Some doses without a T/C left all or most animals alive at the check, yet need not have been tolerated: survival well below the control is almost never listed, so the zero probably covers shortened survival too. Counts of survivors are from the toxicity check (mostly the fifth day) where no day follows; animals may have died later. Schedule codes are those of the source, taken here to give the interval after Q, in days (D) or hours (H), and the number of doses after X. Some doses were run more than once; the values are given in rising order. Where survival is the endpoint, the PubChem record calls one and a half times the control and up active, and a quarter to a half above the control has no call in these data; cut-offs in other NCI protocols can differ.

For the experiment, the system named is BDF1 mice, B16 melanoma ip, median survival T/C. Nature of the experiment: NCI In Vivo Anticancer Drug Screen. Data for tumor model B16 Melanoma (intraperitoneal) in B6D2F1 (BDF1) mice. The note with it: T/C endpoint: median survival time, higher T/C = longer survival. In outline:
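Vehicle-treated animals serve as the reference (C); treated animals (T) are scored for survival or tumor size after tumor transplantation.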

The mark [1] stands for this setting: dose: 400.0 mg/kg/injection, schedule: Q01DX009 (ip), vehicle: Klucel (hydroxypropylcellulose) (HPC).
Setting [2] is: dose: 12.0 mg/kg/injection, schedule: Q01DX009 (ip), vehicle: alcohol.
The mark [3] stands for this setting: dose: 12.0 mg/kg/injection, schedule: Q01DX009 (ip), vehicle: saline + alcohol.

Regarding `CCNC1C2CCC(C2)C1c1ccccc1` (configuration not stated), the survivor count was 5 of 10 (dose: 50.0 mg/kg/injection, schedule: Q01DX009 (ip), vehicle: saline); 0 of 10 (dose: 100.0 mg/kg/injection, schedule: Q01DX009 (ip), vehicle: saline); 0 of 10 (dose: 200.0 mg/kg/injection, schedule: Q01DX009 (ip), vehicle: saline); 0 of 10 (dose: 400.0 mg/kg/injection, schedule: Q01DX009 (ip), vehicle: saline).

With `COC(=O)C(Cc1c[nH]c2ccccc12)NC(=O)C(NC(=O)OC(C)(C)C)C(C)C` (configuration not stated), the survivor count (dose: 100.0 mg/kg/injection, schedule: Q01DX009 (ip), vehicle: Klucel (hydroxypropylcellulose) (HPC)) is given as 10 of 10; the survivor count (dose: 200.0 mg/kg/injection, schedule: Q01DX009 (ip), vehicle: Klucel (hydroxypropylcellulose) (HPC)) is 10 of 10; the survivor count under setting [1] is listed as 10 of 10.

On to `CCC[CH2][Sn]1([CH2]CCC)[O]OC2(CCCCC2)[O]1`, for which the survivor count runs as follows: (dose: 5.0 mg/kg/injection, schedule: Q01DX009 (ip), vehicle: saline with Tween-80) 10 of 10; (dose: 10.0 mg/kg/injection, schedule: Q01DX009 (ip), vehicle: saline with Tween-80) 2 of 10.

`CCCCNC(=O)Nc1cc(C)ccc1C`: under setting [1], the survivor count is recorded as 5 of 10.

`Cc1ccc(S(=O)(=O)Oc2ccc(-c3ccc(OS(=O)(=O)c4ccc(C)cc4)cc3)cc2)cc1`: the survivor count is, setting by setting: (dose: 200.0 mg/kg/injection, schedule: Q01DX009 (ip), vehicle: saline with Tween-80) 10 of 10; (dose: 400.0 mg/kg/injection, schedule: Q01DX009 (ip), vehicle: saline with Tween-80) 10 of 10.

Regarding `O=NN(CCCl)C(=O)NCCCl`, the T/C was 102, 116, 135, 138 % of control (dose: 1.5 mg/kg/injection, schedule: Q01DX009 (ip), vehicle: saline + alcohol); 127 % of control (dose: 2.5 mg/kg/injection, schedule: Q01DX009 (ip), vehicle: other); 128 % of control (dose: 2.5 mg/kg/injection, schedule: Q04DX003 (ip), vehicle: saline + alcohol); 125 and 126 % of control (dose: 3.0 mg/kg/injection, schedule: Q01DX009 (ip), vehicle: alcohol); 117, 127, 140, 152 % of control (dose: 3.0 mg/kg/injection, schedule: Q01DX009 (ip), vehicle: saline + alcohol); 137 % of control (dose: 3.75 mg/kg/injection, schedule: Q01DX009 (ip), vehicle: saline). Also, the T/C is 138 and 141 % of control (dose: 4.0 mg/kg/injection, schedule: Q01DX009 (ip), vehicle: saline + alcohol); 127 and 143 % of control (dose: 4.0 mg/kg/injection, schedule: Q01DX009 (ip), vehicle: saline with Tween-80); 130 % of control (dose: 4.0 mg/kg/injection, schedule: Q04DX003 (ip), vehicle: saline + alcohol); 132 % of control (dose: 5.0 mg/kg/injection, schedule: Q04DX003 (ip), vehicle: saline + alcohol); 137, 178, 185, 256 % of control (dose: 6.0 mg/kg/injection, schedule: Q01DX009 (ip), vehicle: saline + alcohol); 116 and 133 % of control (dose: 10.0 mg/kg/injection, schedule: Q01DX001 (ip), vehicle: saline + alcohol, evaluated on day 5). Also, the T/C is 109 % of control (dose: 10.0 mg/kg/injection, schedule: Q01DX001 (ip), vehicle: saline + alcohol, evaluated on day 6); 131 % of control (dose: 10.0 mg/kg/injection, schedule: Q01DX001 (ip), vehicle: saline + alcohol, evaluated on day 45); 132 % of control (dose: 10.0 mg/kg/injection, schedule: Q01DX001 (ip), vehicle: saline + alcohol, evaluated on day 60); 141 % of control (dose: 10.0 mg/kg/injection, schedule: Q04DX003 (ip), vehicle: saline + alcohol); 137 % of control under setting [2]; 200 and 278 % of control under setting [3]. Also, the T/C reads like this: (dose: 15.0 mg/kg/injection, schedule: Q01DX001 (ip), vehicle: saline) 145 % of control; (dose: 16.0 mg/kg/injection, schedule: Q01DX001 (ip), vehicle: saline + alcohol) 143 % of control; (dose: 20.0 mg/kg/injection, schedule: Q01DX001 (ip), vehicle: saline + alcohol, evaluated on day 5) 129 and 144 % of control; (dose: 20.0 mg/kg/injection, schedule: Q01DX001 (ip), vehicle: saline + alcohol, evaluated on day 6) 127 % of control; (dose: 20.0 mg/kg/injection, schedule: Q01DX001 (ip), vehicle: saline + alcohol, evaluated on day 13) 132 and 145 % of control; (dose: 20.0 mg/kg/injection, schedule: Q01DX001 (ip), vehicle: saline + alcohol, evaluated on day 45) 143 % of control. For the same compound, the T/C runs as follows: (dose: 20.0 mg/kg/injection, schedule: Q01DX001 (ip), vehicle: saline + alcohol, evaluated on day 60) 154 % of control; (dose: 32.0 mg/kg/injection, schedule: Q01DX001 (ip), vehicle: saline + alcohol) 134 % of control; (dose: 40.0 mg/kg/injection, schedule: Q01DX001 (ip), vehicle: saline + alcohol, evaluated on day 5) 159 and 174 % of control; (dose: 40.0 mg/kg/injection, schedule: Q01DX001 (ip), vehicle: saline + alcohol, evaluated on day 6) 150 % of control; (dose: 40.0 mg/kg/injection, schedule: Q01DX001 (ip), vehicle: saline + alcohol, evaluated on day 13) 124 and 155 % of control; (dose: 40.0 mg/kg/injection, schedule: Q01DX001 (ip), vehicle: saline + alcohol, evaluated on day 45) 165 % of control. For the same compound, the T/C is 272 % of control (dose: 40.0 mg/kg/injection, schedule: Q01DX001 (ip), vehicle: saline + alcohol, evaluated on day 60); 32 % of control (dose: 80.0 mg/kg/injection, schedule: Q01DX001 (ip), vehicle: saline + alcohol, evaluated on day 5); 46 and 128 % of control (dose: 80.0 mg/kg/injection, schedule: Q01DX001 (ip), vehicle: saline + alcohol, evaluated on day 13). The survivor count was 5 of 5 (dose: 10.0 mg/kg/injection, schedule: Q01DX009 (ip), vehicle: other); 10 of 10 under setting [2]; 9 of 10 (dose: 12.0 mg/kg/injection, schedule: Q01DX009 (ip), vehicle: other); 10 of 10 under setting [3]; 6 of 6 (dose: 15.0 mg/kg/injection, schedule: Q01DX009 (ip), vehicle: saline); 10 of 10 (dose: 16.0 mg/kg/injection, schedule: Q01DX009 (ip), vehicle: saline with Tween-80). Moreover, the survivor count reads like this: (dose: 20.0 mg/kg/injection, schedule: Q01DX009 (ip), vehicle: other) 5 of 5; (dose: 24.0 mg/kg/injection, schedule: Q01DX009 (ip), vehicle: alcohol) 10 of 10; (dose: 24.0 mg/kg/injection, schedule: Q01DX009 (ip), vehicle: other) 8 of 10 and 10 of 10; (dose: 24.0 mg/kg/injection, schedule: Q01DX009 (ip), vehicle: saline + alcohol) 10 of 10; (dose: 25.0 mg/kg/injection, schedule: Q01DX009 (ip), vehicle: alcohol) 10 of 10; (dose: 30.0 mg/kg/injection, schedule: Q01DX009 (ip), vehicle: saline) 6 of 6. In addition, the survivor count (dose: 32.0 mg/kg/injection, schedule: Q01DX009 (ip), vehicle: saline with Tween-80) was 10 of 10; the survivor count (dose: 60.0 mg/kg/injection, schedule: Q01DX009 (ip), vehicle: saline) was 2 of 6; the survivor count (dose: 80.0 mg/kg/injection, schedule: Q01DX001 (ip), vehicle: saline + alcohol) was 10 of 10; the survivor count (dose: 80.0 mg/kg/injection, schedule: Q01DX001 (ip), vehicle: saline) is given as 10 of 10.

Turning to `CC(=O)Oc1ccccc1C(=O)O`, the survivor count (dose: 125.0 mg/kg/injection, schedule: Q01DX009 (ip), vehicle: saline with Tween-80) was 6 of 6.
